Data published in PMC5825162.
These are yes or no findings as the source states them, for the method shown. In cells and extracts the contact can be indirect.

Amino acid sequences for entries named in this document (tags omitted). Residues count along the entry.
UniProt F5HAK9, residues 22-730: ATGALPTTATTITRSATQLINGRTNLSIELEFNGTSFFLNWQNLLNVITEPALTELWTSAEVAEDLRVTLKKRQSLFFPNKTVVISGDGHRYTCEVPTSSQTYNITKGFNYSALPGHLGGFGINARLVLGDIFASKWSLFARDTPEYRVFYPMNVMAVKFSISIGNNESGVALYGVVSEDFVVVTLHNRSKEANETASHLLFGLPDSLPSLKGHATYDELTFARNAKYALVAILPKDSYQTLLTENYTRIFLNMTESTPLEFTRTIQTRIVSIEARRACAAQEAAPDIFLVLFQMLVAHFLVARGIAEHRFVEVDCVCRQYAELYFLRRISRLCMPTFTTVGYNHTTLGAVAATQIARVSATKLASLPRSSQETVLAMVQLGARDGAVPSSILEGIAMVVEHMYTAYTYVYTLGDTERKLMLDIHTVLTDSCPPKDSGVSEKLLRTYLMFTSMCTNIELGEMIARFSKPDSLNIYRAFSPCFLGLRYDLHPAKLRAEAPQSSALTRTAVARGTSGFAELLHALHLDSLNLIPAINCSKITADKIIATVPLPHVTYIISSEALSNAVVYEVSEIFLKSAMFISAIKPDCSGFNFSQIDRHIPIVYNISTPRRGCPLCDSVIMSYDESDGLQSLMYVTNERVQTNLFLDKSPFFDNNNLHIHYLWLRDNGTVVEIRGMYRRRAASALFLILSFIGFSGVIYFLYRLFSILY
UniProt P29317, residues 24-976: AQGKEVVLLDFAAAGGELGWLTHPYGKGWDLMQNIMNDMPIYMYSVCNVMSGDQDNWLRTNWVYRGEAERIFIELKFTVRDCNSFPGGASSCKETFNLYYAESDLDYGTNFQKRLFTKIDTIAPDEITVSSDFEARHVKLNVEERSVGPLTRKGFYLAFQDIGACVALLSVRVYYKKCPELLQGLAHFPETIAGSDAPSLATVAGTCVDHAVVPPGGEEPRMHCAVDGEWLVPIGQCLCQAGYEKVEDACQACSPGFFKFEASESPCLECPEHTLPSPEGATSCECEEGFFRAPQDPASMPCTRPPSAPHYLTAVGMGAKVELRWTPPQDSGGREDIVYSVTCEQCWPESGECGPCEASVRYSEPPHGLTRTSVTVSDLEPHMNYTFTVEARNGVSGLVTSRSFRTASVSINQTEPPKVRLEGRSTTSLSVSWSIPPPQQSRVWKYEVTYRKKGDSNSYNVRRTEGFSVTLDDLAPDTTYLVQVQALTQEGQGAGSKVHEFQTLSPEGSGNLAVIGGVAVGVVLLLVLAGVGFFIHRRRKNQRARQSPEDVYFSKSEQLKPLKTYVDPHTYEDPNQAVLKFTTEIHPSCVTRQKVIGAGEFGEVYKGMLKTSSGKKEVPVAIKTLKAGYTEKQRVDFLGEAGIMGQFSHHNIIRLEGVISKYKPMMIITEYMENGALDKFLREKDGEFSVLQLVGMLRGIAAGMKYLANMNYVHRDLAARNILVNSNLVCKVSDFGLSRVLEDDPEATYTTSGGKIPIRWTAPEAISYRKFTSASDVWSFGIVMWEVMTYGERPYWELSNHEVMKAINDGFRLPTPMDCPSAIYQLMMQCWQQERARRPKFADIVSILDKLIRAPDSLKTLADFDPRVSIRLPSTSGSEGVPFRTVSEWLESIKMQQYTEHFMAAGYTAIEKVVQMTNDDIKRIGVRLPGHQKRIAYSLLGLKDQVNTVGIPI

Biological target: V5-tagged KSHV gH (glycoprotein H), alone (Kaposi's sarcoma-associated herpesvirus (KSHV)) (UniProt F5HAK9)
Assay: co-IP; gH-V5/gL-Flag complexes (input normalised) from NP40 lysates of transfected 293T cells pre-coupled to V5-tag antibody and ProteinG sepharose, one wash, then incubated overnight at 4°C with equal amounts of lysate of 293T cells transfected with full-length EphA2-myc (KSHV gH/gL) or full-length EphB3-myc (RRV gH/gL); 3 washes in NP40 lysis buffer; Western blot via the tags

Substance: myc-tagged full-length EphA2 (from UniProt P29317-1 24-976) (receptor)
- binding: no binding
